The source of these data is publication PMC8228365, “Degradation Products of Tryptophan in Cell Culture Media: Contribution to Color and Toxicity” (International Journal of Molecular Sciences, 2021).

Each structure is given as a SMILES string.

The data set in a line: Ammonia production in feed with a-ketoglutaric acid during 98-day storage. Format: physicochemical. The settings on record: 98 days, vs feed without aKG.

Take `O=C(O)CCC(=O)C(=O)O` [aKG, a-Ketoglutaric acid]: the decrease in ammonia runs as follows: (feed stored at 37 °C) 72%; (feed stored at RT) 68%.
